In this test the target is Flag-tagged porcine 2'-5'-oligoadenylate synthetase-like protein (pOASL) (porcine). Briefly: co-IP.

No constants are given. Whether binding was seen depends on the method and setting. In cells and extracts the contact can be indirect. Tags and fused reporters may be left off the sequences shown.

The record followed here is article PMC5432864.

B1: Myc-tagged porcine RIG-I (pRIG-I) (protein, UniProt Q9GLV6 1-940)
chain: MTAEQRRNLHAFGDYVRKTLDPTFILSYMAPWFRDDEVQHIQAEKNNKGPTEAASLFLQFLLELQEEGWFRGFLDALNQAGYCGLCEAIESWDFQKIEKLEEYRSLLRRLQPEFKTTINPKDILPEIAECLISQECEEILQICSSKGLMAGAEKMVECLLRSDKENWPKTLKLALEKEESRFSELWMVDKGAEDVKMKDLEDDEMKTCDVQIFYKEEPENQNLSQNSCSSSAPHTYSPLKPRKYQLELALPAQNGKNTIICAPTGCGKTFVSLLICEHHLKKFPRGRKGKVVFFAIQLPVYEQQKSVFSKHFERLGYKVAGISGATSDTVCVEQIVENSDIIILTPQILVNCLTNGTIPSLSVFTLMIFDECHNTSKQHPYNVIMFSYLDRKLGGSSDSLPQVIGLTASVGVGDAKNKAEATEYICKLCASLDTSVIATVRDNLEELEEVVYKPQKFFRKVELRTTDRFKCIISQLMMEIESLAKSIFEELGTITLGGLFQIQNSNFGTQKYEQWIVKVQKECAVFQMPDKDKESRICKALFSYMSHLRIYNDALIINEHARMKDALDYLKDFFRNIRAAGFDEIEQDLTQRFEEKLQELESISIDPSNENPKLRDLCFILQEEYHLNPETRTILFVKTRALVDALKKWIKENPKLSFLKPSILTGRGKTNQNIGMTLPAQKCVLDTFRTDKDNKILITTSVADEGIDIAQCNLVILYEYVGNVIKMIQTRGRGRARGSKCFLLTANADLIDKEKMNMYKEEMMNGAILILQTWDEAVFKEKIHQIQIREKIIRDNQGKPEPVPDKKTKKLLCKKCKAFACYTADIRMVEKCHFTVVGDAFRERFVSKLHPKPKSFGNIEKRAKIYCARPDCSHDWGIYVRYKAFEMPFIKIESFVVEDIATGVQTVHAKWKDFNFEKLSFDAAEMAGGAQDLGLQGMGN
With B1, the binding result is given as “no binding”.
